Some of the results follow.
What was measured:
Assay in all cases: log2 fold change, soluble protein after heating vs DMSO (PISA); higher = thermal stabilisation; K562 cells, 10 uM, 30 min; active = over 0.2 and 3.5 SD of the protein, either way, in both replicates (recomputed)
erlotinib = compound: C#Cc1cccc(Nc2ncnc3cc(OCCOC)c(OCCOC)cc23)c1 [erlotinib]
Outline: (§1)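 K562 cells at 2×10^6 cells/mL were treated for 30 min with 10 μM compound, and aliquots were heated for 3 min over 48°C-58°C before pooling. Extraction used PBS with 0.5% NP-40 at 4°C, and soluble protein was the supernatant after 21,000xg for 90 min, measured by TMTpro 16plex LC-MS/MS with channel sums equalised. Thermal stability values, relative to control samples and from duplicates, are log2 fold changes.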

The chains behind the UniProt entries cited, without tags or fusion partners. Where a name states a change or a piece, a line headed by the entry shows the natural chain unless it says otherwise.
UniProt Q92888: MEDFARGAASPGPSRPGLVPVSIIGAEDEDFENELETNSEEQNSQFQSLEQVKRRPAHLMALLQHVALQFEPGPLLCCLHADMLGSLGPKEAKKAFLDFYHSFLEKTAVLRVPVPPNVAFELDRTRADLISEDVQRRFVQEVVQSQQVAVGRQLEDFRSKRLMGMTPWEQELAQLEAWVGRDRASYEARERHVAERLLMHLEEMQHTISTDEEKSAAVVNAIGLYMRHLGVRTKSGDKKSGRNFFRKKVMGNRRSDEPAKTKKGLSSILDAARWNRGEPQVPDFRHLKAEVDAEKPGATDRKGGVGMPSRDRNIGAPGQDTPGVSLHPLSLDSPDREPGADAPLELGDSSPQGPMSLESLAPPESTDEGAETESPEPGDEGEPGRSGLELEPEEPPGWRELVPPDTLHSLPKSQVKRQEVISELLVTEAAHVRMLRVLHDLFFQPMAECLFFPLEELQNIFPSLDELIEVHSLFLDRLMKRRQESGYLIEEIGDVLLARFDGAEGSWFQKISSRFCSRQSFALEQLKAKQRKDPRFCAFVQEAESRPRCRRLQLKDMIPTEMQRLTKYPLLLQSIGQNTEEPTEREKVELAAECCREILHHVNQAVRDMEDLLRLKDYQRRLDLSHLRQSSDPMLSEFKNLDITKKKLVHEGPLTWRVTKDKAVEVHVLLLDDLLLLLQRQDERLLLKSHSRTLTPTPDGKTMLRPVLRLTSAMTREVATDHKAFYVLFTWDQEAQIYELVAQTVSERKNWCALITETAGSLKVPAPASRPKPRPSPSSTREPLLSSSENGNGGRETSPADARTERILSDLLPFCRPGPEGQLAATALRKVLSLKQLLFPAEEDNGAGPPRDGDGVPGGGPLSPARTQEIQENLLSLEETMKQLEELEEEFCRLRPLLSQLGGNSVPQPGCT
UniProt P52565: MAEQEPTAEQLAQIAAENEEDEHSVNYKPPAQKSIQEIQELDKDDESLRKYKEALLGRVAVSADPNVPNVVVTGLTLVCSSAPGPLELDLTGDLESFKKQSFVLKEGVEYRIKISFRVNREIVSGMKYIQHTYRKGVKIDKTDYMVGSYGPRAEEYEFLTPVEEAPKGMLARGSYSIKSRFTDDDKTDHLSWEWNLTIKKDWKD
UniProt Q92974: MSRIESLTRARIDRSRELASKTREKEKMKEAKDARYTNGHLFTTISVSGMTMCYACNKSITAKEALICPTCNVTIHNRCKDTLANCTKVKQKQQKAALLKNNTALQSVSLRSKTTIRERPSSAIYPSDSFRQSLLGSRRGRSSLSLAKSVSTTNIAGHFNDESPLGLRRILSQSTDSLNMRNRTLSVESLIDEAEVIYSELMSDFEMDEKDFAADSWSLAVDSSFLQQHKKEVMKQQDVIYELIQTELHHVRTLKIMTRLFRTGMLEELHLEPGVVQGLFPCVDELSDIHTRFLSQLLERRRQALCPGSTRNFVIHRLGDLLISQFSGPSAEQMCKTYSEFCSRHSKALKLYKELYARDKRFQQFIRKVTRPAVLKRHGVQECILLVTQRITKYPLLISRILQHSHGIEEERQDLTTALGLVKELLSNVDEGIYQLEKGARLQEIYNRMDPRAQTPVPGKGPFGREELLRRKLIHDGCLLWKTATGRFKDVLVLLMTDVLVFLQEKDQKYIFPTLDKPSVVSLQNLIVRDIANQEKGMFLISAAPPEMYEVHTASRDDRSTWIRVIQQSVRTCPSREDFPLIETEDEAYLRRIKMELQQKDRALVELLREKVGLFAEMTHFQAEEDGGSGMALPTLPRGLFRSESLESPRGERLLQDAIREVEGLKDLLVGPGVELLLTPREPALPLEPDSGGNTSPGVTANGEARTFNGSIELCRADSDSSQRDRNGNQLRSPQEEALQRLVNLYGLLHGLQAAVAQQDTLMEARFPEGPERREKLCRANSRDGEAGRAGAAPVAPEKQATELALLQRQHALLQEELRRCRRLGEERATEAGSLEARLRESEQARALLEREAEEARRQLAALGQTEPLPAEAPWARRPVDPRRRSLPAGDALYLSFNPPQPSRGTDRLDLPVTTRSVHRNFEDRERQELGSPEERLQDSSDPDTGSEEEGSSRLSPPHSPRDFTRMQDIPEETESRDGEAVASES
UniProt Q8IWW6: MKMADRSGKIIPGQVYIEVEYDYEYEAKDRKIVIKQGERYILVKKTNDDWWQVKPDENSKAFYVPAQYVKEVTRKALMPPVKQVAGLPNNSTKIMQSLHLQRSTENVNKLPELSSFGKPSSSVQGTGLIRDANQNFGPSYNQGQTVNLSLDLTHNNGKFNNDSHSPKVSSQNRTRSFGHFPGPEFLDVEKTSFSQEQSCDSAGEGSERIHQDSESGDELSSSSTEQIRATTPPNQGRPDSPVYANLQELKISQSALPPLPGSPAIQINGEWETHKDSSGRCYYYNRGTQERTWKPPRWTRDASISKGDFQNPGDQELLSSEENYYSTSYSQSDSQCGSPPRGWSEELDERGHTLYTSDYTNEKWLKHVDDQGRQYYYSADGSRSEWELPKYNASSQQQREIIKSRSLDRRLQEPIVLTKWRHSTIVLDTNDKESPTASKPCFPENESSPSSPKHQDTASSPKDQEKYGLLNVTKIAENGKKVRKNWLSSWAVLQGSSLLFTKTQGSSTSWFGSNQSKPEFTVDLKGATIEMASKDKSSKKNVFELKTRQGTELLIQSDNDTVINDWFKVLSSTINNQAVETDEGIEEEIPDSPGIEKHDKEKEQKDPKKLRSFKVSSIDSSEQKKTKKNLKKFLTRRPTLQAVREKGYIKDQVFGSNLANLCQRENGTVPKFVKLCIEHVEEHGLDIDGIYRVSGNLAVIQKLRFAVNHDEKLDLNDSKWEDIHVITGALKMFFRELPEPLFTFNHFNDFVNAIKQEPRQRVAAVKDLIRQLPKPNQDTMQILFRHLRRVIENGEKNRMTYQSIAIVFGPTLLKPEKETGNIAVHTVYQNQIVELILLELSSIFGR
UniProt Q9UJX6, whole entry, looked up: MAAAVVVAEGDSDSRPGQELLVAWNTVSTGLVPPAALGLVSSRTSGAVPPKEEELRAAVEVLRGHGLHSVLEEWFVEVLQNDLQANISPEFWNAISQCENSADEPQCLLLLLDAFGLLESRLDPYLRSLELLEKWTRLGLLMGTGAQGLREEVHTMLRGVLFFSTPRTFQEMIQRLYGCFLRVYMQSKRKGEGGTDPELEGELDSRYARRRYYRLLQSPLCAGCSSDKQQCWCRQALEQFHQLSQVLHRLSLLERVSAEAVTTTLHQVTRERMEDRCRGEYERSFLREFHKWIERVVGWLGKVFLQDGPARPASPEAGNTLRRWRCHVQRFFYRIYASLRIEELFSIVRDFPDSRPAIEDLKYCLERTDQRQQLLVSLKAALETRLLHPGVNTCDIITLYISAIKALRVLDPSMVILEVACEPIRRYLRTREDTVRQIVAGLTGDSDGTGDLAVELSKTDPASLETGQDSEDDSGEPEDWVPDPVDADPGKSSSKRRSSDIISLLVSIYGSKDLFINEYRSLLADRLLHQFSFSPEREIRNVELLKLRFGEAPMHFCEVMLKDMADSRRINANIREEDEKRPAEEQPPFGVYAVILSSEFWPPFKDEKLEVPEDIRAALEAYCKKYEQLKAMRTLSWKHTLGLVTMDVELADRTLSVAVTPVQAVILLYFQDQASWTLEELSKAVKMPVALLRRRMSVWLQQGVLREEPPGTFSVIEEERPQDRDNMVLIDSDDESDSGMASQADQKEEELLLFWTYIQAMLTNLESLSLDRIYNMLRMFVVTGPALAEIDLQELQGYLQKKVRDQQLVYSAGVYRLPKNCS
UniProt Q9HC16: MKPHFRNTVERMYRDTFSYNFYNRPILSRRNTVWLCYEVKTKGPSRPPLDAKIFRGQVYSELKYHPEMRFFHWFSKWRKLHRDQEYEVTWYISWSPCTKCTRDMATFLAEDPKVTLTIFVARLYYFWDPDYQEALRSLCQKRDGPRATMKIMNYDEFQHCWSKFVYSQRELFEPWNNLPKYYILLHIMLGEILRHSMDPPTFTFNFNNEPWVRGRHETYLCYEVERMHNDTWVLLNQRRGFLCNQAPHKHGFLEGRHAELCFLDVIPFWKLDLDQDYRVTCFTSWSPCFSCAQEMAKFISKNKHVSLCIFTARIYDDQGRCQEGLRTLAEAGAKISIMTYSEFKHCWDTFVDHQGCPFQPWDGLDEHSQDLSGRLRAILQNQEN
UniProt O95782: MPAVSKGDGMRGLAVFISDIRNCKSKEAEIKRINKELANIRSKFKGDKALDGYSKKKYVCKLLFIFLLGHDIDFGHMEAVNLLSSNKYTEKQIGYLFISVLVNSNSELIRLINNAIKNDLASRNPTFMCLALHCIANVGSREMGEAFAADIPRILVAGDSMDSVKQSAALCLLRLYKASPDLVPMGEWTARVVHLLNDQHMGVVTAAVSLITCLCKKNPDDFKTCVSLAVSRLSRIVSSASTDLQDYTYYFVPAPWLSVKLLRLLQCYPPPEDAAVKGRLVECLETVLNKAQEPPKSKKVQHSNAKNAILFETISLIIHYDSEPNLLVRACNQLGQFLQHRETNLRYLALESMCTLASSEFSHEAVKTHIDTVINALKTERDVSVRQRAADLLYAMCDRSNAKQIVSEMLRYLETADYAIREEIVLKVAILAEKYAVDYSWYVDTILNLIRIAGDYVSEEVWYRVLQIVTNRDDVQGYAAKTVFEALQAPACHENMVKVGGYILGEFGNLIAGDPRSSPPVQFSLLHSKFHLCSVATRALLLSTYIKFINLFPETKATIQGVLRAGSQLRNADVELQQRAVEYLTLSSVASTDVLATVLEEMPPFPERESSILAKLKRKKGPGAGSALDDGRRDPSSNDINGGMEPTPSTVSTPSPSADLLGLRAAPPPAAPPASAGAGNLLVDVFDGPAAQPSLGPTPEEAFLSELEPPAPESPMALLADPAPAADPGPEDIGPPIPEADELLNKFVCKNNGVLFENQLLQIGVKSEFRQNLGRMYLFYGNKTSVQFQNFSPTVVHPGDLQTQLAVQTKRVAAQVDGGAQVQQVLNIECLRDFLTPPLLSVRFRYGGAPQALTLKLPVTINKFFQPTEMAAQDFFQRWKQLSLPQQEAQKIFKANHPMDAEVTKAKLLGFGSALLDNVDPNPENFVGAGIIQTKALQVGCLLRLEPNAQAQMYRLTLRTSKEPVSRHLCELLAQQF
UniProt O14617: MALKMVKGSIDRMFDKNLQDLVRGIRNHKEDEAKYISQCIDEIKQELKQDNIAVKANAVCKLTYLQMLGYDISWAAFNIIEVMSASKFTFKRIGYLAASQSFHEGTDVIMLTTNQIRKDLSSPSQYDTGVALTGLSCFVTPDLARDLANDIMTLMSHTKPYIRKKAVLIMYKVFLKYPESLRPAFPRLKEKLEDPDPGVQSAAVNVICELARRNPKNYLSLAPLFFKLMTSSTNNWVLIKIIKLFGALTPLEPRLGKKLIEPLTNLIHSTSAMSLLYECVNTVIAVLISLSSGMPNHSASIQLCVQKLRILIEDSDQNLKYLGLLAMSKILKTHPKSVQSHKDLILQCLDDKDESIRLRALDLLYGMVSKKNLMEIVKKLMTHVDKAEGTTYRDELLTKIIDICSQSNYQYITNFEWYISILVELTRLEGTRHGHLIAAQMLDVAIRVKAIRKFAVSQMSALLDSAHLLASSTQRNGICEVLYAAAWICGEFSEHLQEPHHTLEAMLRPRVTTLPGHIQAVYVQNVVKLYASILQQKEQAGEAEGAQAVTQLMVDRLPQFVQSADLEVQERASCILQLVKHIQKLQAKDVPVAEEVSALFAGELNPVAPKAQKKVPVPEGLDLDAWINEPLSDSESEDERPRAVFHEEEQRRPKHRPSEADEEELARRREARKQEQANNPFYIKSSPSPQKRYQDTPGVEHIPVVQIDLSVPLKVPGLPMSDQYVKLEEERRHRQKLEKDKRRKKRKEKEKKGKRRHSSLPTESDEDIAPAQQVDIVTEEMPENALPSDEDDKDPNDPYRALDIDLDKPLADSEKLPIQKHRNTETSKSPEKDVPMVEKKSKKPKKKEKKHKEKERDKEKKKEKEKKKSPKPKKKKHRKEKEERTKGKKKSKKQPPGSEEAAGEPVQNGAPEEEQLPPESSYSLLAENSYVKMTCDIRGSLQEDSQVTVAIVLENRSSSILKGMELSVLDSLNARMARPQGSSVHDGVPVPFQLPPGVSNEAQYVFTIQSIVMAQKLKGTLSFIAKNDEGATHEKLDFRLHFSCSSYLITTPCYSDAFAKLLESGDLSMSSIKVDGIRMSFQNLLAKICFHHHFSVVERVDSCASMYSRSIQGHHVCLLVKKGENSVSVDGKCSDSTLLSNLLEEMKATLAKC
UniProt Q92688: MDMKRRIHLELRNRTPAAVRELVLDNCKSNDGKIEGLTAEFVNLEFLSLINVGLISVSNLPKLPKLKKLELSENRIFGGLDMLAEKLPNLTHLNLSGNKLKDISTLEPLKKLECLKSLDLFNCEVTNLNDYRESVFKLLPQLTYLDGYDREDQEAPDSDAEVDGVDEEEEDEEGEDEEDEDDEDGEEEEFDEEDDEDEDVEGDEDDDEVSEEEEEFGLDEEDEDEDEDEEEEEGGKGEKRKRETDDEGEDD

[1] = compound: C/C(=N\NC(=O)C1=CC(=CC=C1)S(=O)(=O)N2CCOCC2)/C3=C(C=CC(=C3)Cl)O
Outline: as §1

[2] = compound: C1=CC(=C(C=C1Cl)C2=NC3=NC=CN=C3C(=N2)NC4=CC=NC=C4)F
Outline: as §1

[3] = compound: C1=CC(=CC=C1C2=NC3=C(N2)C=C(C=C3)C(=O)N)OC4=CC=C(C=C4)Cl
Outline: as §1

[4] = compound: C1=CC2=C(C=CC(=C2)/C=C\3/C(=O)NC(=NCC4=CC=CS4)S3)N=C1
Outline: as §1

[5] = compound: C1=CC2=NC=CN=C2C=C1/C=C/3\C(=O)NC(=O)S3
Outline: as §1

[6] = compound: C1=CC=C(C=C1)C2=NC(=C(N2)C3=CC=NC=C3)C4=CC(=C(C=C4)Cl)O
Outline: as §1

[7] = compound: C1=CC=C2C(=C1)C3=NNC4=CC=CC(=C43)C2=O
Outline: as §1

[8] = compound: C1CCN(C1)C(=O)NC2=CC=CC(=C2)NC3=NC=C(C(=N3)NCCC4=CN=CN4)Br
Outline: as §1

[9] = compound: C1CN(CCC1(CC2=CC=C(C=C2)Cl)N)C3=NC=NC4=C3C=CN4
Outline: as §1

Measured: log2 fold change

AP2B1 isoform 2 (UniProt P63010)
active: [8] -0.225
inactive: erlotinib -0.021 | [1] 0.017 | [2] -0.01 | [3] 0.003 | [4] 0.004 | [5] -0.009 | [6] -0.004 | [7] -0.158 | [9] -0.003

ARHGEF1 isoform 3 (UniProt Q92888)
inactive: erlotinib 0.022 | [1] -0.045 | [2] -0.059 | [3] 0.008 | [4] -0.03 | [5] -0.015 | [6] -0.016 | [7] -0.037 | [8] -0.058 | [9] -0.155

ARF1 (UniProt P84077)
inactive: erlotinib 0.018 | [1] 0.011 | [2] 0.186 | [3] 0.088 | [4] -0.007 | [5] -0.031 | [6] -0.003 | [7] -0.048 | [8] 0.032 | [9] -0.106

ANAPC4 isoform 3 (UniProt Q9UJX5)
inactive: erlotinib 0.008 | [1] 0.046 | [2] -0.013 | [3] 0.046 | [4] -0.031 | [5] 0.006 | [6] 0.017 | [7] -0.035 | [8] -0.034 | [9] 0.016

ARHGDIA (UniProt P52565)
inactive: erlotinib 0.014 | [1] 0.093 | [2] 0.057 | [3] 0.003 | [4] -0.076 | [5] 0.003 | [6] -0.017 | [7] 0.09 | [8] -0.075 | [9] 0.039

ARHGEF2 (UniProt Q92974)
inactive: erlotinib 0 | [1] -0.053 | [2] -0.603 | [3] 0.021 | [4] 0 | [5] 0.018 | [6] -0.04 | [7] -0.017 | [8] -0.086 | [9] -0.096

AP2M1 (UniProt Q96CW1)
active: [7] -0.26 | [8] -0.367
inactive: erlotinib -0.067 | [1] 0.006 | [2] -0.012 | [3] 0.017 | [4] 0.005 | [5] -0.016 | [6] 0.036 | [9] -0.01

Retrieved one by one from the list above, 2 records:
ARF1 (UniProt P84077)
inactive: erlotinib 0.018 | [1] 0.011 | [2] 0.186 | [3] 0.088 | [4] -0.007 | [5] -0.031 | [6] -0.003 | [7] -0.048 | [8] 0.032 | [9] -0.106

AP2B1 isoform 2 (UniProt P63010)
active: [8] -0.225
inactive: erlotinib -0.021 | [1] 0.017 | [2] -0.01 | [3] 0.003 | [4] 0.004 | [5] -0.009 | [6] -0.004 | [7] -0.158 | [9] -0.003

Later entries.

ARHGAP12 (UniProt Q8IWW6)
inactive: erlotinib 0.088 | [1] 0.123 | [2] 0.096 | [3] -0.016 | [4] 0.116 | [5] -0.061 | [6] -0.032 | [7] -0.024 | [8] -0.104 | [9] 0.204

ANKRD17 (UniProt O75179)
inactive: erlotinib 0.143 | [1] -0.188 | [2] -0.114 | [3] -0.078 | [4] 0.139 | [5] -0.083 | [6] -0.008 | [7] 0.019 | [8] -0.093 | [9] -0.002

APMAP (UniProt Q9HDC9)
inactive: erlotinib 0.006 | [1] -0.006 | [2] 0.002 | [3] 0 | [4] 0.013 | [5] 0.01 | [6] -0.049 | [7] 0.01 | [8] 0.014 | [9] 0.037

ANAPC2 (UniProt Q9UJX6)
inactive: erlotinib -0.028 | [1] 0.064 | [2] -0.002 | [3] 0.018 | [4] 0.002 | [5] 0.144 | [6] -0.029 | [7] 0.022 | [8] -0.033 | [9] -0.022

AP3S1 (UniProt Q92572)
inactive: erlotinib 0.011 | [1] 0.024 | [2] -0.03 | [3] 0.074 | [4] 0.003 | [5] 0.008 | [6] -0.026 | [7] -0.03 | [8] 0.012 | [9] -0.006

APOBEC3G (UniProt Q9HC16)
inactive: erlotinib -0.087 | [1] 0.027 | [2] -0.124 | [3] 0.047 | [4] -0.005 | [5] 0.056 | [6] -0.056 | [7] 0.109 | [8] 0.181 | [9] -0.362

APOO (UniProt Q9BUR5)
inactive: erlotinib 0.038 | [1] 0.039 | [2] 0.102 | [3] -0.015 | [4] -0.04 | [5] 0.032 | [6] -0.049 | [7] -0.065 | [8] 0.011 | [9] 0.008

ANKRD54 (UniProt Q6NXT1)
inactive: erlotinib -0.021 | [1] 0.015 | [2] -0.029 | [3] 0.022 | [4] -0.024 | [5] -0.001 | [6] -0.03 | [7] -0.031 | [8] -0.003 | [9] 0.041

AP1G1 isoform 2 (UniProt O43747)
inactive: erlotinib 0.012 | [1] 0.035 | [2] 0.026 | [3] -0.02 | [4] 0.011 | [5] 0.037 | [6] 0.073 | [7] -0.029 | [8] -0.007 | [9] -0.049

ARFIP2 (UniProt P53365)
inactive: erlotinib 0.056 | [1] 0.088 | [2] 0.114 | [3] 0.015 | [4] -0.052 | [5] 0.018 | [6] 0.017 | [7] -0.03 | [8] -0.051 | [9] 0.075

ARAF (UniProt P10398)
inactive: erlotinib 0.014 | [1] 0.096 | [2] 0.061 | [3] 0.014 | [4] 0.26 | [5] -0.012 | [6] 0.077 | [7] -0.187 | [8] -0.017 | [9] 0.035

AP4E1 (UniProt Q9UPM8)
inactive: erlotinib 0.204 | [1] 0.15 | [2] -0.139 | [3] -0.001 | [4] 0.088 | [5] 0.046 | [6] 0 | [7] -0.082 | [8] -0.061 | [9] -0.054

ANO10 (UniProt Q9NW15)
inactive: erlotinib -0.08 | [1] 0.076 | [2] 0.01 | [3] -0.01 | [4] 0.03 | [5] 0.013 | [6] 0.02 | [7] 0 | [8] -0.009 | [9] 0.019

AP2A1 (UniProt O95782)
active: [7] -0.381 | [8] -0.527
inactive: erlotinib -0.019 | [1] 0.012 | [2] -0.035 | [3] 0.003 | [4] -0.041 | [5] 0.003 | [6] 0.057 | [9] -0.038

APOE (UniProt P02649)
inactive: erlotinib -0.021 | [1] 0.011 | [2] -0.051 | [3] -0.052 | [4] -0.007 | [5] -0.038 | [6] -0.007 | [7] -0.077 | [8] -0.048 | [9] 0.011

AP3D1 isoform 5 (UniProt O14617)
inactive: erlotinib -0.003 | [1] 0.086 | [2] -0.024 | [3] -0.001 | [4] 0.019 | [5] -0.012 | [6] 0.033 | [7] 0 | [8] 0.018 | [9] -0.006

ARFGAP2 (UniProt Q8N6H7)
inactive: erlotinib 0.017 | [1] 0.034 | [2] 0.019 | [3] -0.016 | [4] 0.06 | [5] 0 | [6] -0.01 | [7] -0.007 | [8] -0.053 | [9] -0.009

APOC1 (UniProt P02654)
inactive: erlotinib -0.166 | [1] 0.079 | [2] 0.277 | [3] 0.099 | [4] 0.028 | [5] 0.111 | [6] 0.111 | [7] -0.004 | [8] -0.084 | [9] -0.065

APOB (UniProt P04114)
inactive: erlotinib 0.062 | [1] 0.008 | [2] 0.042 | [3] -0.024 | [4] -0.018 | [5] 0.05 | [6] 0.046 | [7] -0.011 | [8] 0.018 | [9] -0.174

ANP32B (UniProt Q92688)
inactive: erlotinib -0.006 | [1] 0.042 | [2] -0.006 | [3] -0.014 | [4] 0.013 | [5] 0.015 | [6] -0.043 | [7] 0.006 | [8] -0.019 | [9] 0.019

ARF3 (UniProt P61204)
inactive: erlotinib 0.004 | [1] 0.039 | [2] 0.034 | [3] -0.006 | [4] 0.027 | [5] 0.007 | [6] 0.029 | [7] 0.005 | [8] -0.019 | [9] 0.025

ANAPC16 (UniProt Q96DE5)
inactive: erlotinib -0.05 | [1] 0.055 | [2] -0.077 | [3] -0.004 | [4] 0.105 | [5] 0.04 | [6] -0.021 | [7] -0.055 | [8] -0.105 | [9] -0.175

ANXA6 (UniProt P08133)
inactive: erlotinib 0 | [1] 0.044 | [2] 0.023 | [3] 0.014 | [4] 0.012 | [5] 0.062 | [6] 0.019 | [7] -0.012 | [8] 0.003 | [9] -0.036

— the supplement of paper PMC10849652
